# Results reported in the supplement of paper PMC8728848.
# The list shows a part of the results.
# B1: OS9-MRH (Homo sapiens), Q13438 (protein)
# chain: IPELLSPMRDAPCLLKTKDWWTYEFCYGRHIQQYHMEDSEIKGEVLYLGYYQSAFDWDDETAKASKQHRLKRYHSQTYGNGSKCDLNGRPREAEVRFLCDEGAGISGDYIDRVDEPLSCSYVLTIRTPRLCPHPLLRPPPSAAPQAI
# Tests used:
# Test in all cases: glycan array binding signal (z-score within array); higher = stronger binding
# Settings in all cases: glycan notation: IUPAC condensed, linker removed
# [1] = molecular target: Neu5Ac(a2-3)Gal6S(b1-4)[Fuc(a1-3)]GlcNAc
# Procedure, shortened: (§1)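 The binding signal is a Z-score computed within each array. Data were drawn from 3228 arrays in the Consortium for Functional Glycomics database, restricted to those with a known protein sequence. Scores were averaged over arrays of the same protein sequence at different concentrations or buffers, and over linkers, and negative values can be taken as non-binding.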
# [2] = molecular target: Neu5Ac(a2-3)GalNAc
# Procedure, shortened: as §1
# [3] = molecular target: Neu5Ac(a2-3)GalNAc(b1-4)GlcNAc
# Procedure, shortened: as §1
# [4] = molecular target: Neu5Ac(a2-3)[GalNAc(b1-4)]Gal(b1-4)Glc
# Procedure, shortened: as §1
# [5] = molecular target: Neu5Ac(a2-3)[GalNAc(b1-4)]Gal(b1-4)GlcNAc
# Procedure, shortened: as §1
# [6] = molecular target: Neu5Ac(a2-3)[GalNAc(b1-4)]Gal(b1-4)GlcNAc(b1-3)GalNAc
# Procedure, shortened: as §1
# [7] = molecular target: Neu5Ac(a2-3)[Neu5Ac(a2-6)]GalNAc
# Procedure, shortened: as §1
# [8] = molecular target: Neu5Ac(a2-6)Gal
# Procedure, shortened: as §1
# [9] = molecular target: Neu5Ac(a2-6)Gal(b1-3)GlcNAc(b1-3)[Gal(b1-4)GlcNAc(b1-6)]Gal(b1-4)Glc
# Procedure, shortened: as §1
# [10] = molecular target: Neu5Ac(a2-6)Gal(b1-4)Glc
# Procedure, shortened: as §1
# [11] = molecular target: Neu5Ac(a2-6)Gal(b1-4)GlcNAc
# Procedure, shortened: as §1
# [12] = molecular target: Neu5Ac(a2-6)Gal(b1-4)GlcNAc(b1-2)Man
# Procedure, shortened: as §1
# [13] = molecular target: Neu5Ac(a2-6)Gal(b1-4)GlcNAc(b1-2)Man(a1-3)Man(b1-4)GlcNAc(b1-4)GlcNAc
# Procedure, shortened: as §1
# [14] = molecular target: Neu5Ac(a2-6)Gal(b1-4)GlcNAc(b1-2)Man(a1-3)[Gal(b1-4)GlcNAc(b1-2)Man(a1-6)]Man(b1-4)GlcNAc(b1-4)GlcNAc
# Procedure, shortened: as §1
# [15] = molecular target: Neu5Ac(a2-6)Gal(b1-4)GlcNAc(b1-2)Man(a1-3)[GlcNAc(b1-2)Man(a1-6)]Man(b1-4)GlcNAc(b1-4)GlcNAc
# Procedure, shortened: as §1
# [16] = molecular target: Neu5Ac(a2-6)Gal(b1-4)GlcNAc(b1-2)Man(a1-3)[GlcNAc(b1-4)][Neu5Ac(a2-6)Gal(b1-4)GlcNAc(b1-2)Man(a1-6)]Man(b1-4)GlcNAc(b1-4)GlcNAc
# Procedure, shortened: as §1
# [17] = molecular target: Neu5Ac(a2-6)Gal(b1-4)GlcNAc(b1-2)Man(a1-3)[Man(a1-6)]Man(b1-4)GlcNAc(b1-4)GlcNAc
# Procedure, shortened: as §1
# [18] = molecular target: Neu5Ac(a2-6)Gal(b1-4)GlcNAc(b1-2)Man(a1-3)[Neu5Ac(a2-3)Gal(b1-4)GlcNAc(b1-2)Man(a1-6)]Man(b1-4)GlcNAc(b1-4)GlcNAc
# Procedure, shortened: as §1
# [19] = molecular target: Neu5Ac(a2-6)Gal(b1-4)GlcNAc(b1-2)Man(a1-3)[Neu5Ac(a2-6)Gal(b1-4)GlcNAc(b1-2)Man(a1-6)]Man(b1-4)GlcNAc(b1-4)GlcNAc
# Procedure, shortened: as §1
# [20] = molecular target: Neu5Ac(a2-6)Gal(b1-4)GlcNAc(b1-2)Man(a1-3)[Neu5Ac(a2-6)Gal(b1-4)GlcNAc(b1-2)Man(a1-6)]Man(b1-4)GlcNAc(b1-4)[Fuc(a1-6)]GlcNAc
# Procedure, shortened: as §1
# [21] = molecular target: Neu5Ac(a2-6)Gal(b1-4)GlcNAc(b1-2)Man(a1-6)Man(b1-4)GlcNAc(b1-4)GlcNAc
# Procedure, shortened: as §1
# [22] = molecular target: Neu5Ac(a2-6)Gal(b1-4)GlcNAc(b1-2)Man(a1-6)[Gal(b1-4)GlcNAc(b1-2)Man(a1-3)]Man(b1-4)GlcNAc(b1-4)GlcNAc
# Procedure, shortened: as §1
# [23] = molecular target: Neu5Ac(a2-6)Gal(b1-4)GlcNAc(b1-2)Man(a1-6)[GlcNAc(b1-2)Man(a1-3)]Man(b1-4)GlcNAc(b1-4)GlcNAc
# Procedure, shortened: as §1
# [24] = molecular target: Neu5Ac(a2-6)Gal(b1-4)GlcNAc(b1-2)Man(a1-6)[Man(a1-3)]Man(b1-4)GlcNAc(b1-4)GlcNAc
# Procedure, shortened: as §1
# [25] = molecular target: Neu5Ac(a2-6)Gal(b1-4)GlcNAc(b1-2)[Neu5Ac(a2-6)Gal(b1-4)GlcNAc(b1-4)]Man(a1-3)[GlcNAc(b1-4)][Neu5Ac(a2-6)Gal(b1-4)GlcNAc(b1-2)[Neu5Ac(a2-6)Gal(b1-4)GlcNAc(b1-6)]Man(a1-6)]Man(b1-4)GlcNAc(b1-4)GlcNAc
# Procedure, shortened: as §1
# [26] = molecular target: Neu5Ac(a2-6)Gal(b1-4)GlcNAc(b1-2)[Neu5Ac(a2-6)Gal(b1-4)GlcNAc(b1-4)]Man(a1-3)[GlcNAc(b1-4)][Neu5Ac(a2-6)Gal(b1-4)GlcNAc(b1-4)Man(a1-6)]Man(b1-4)GlcNAc(b1-4)GlcNAc
# Procedure, shortened: as §1
# [27] = molecular target: Neu5Ac(a2-6)Gal(b1-4)GlcNAc(b1-2)[Neu5Ac(a2-6)Gal(b1-4)GlcNAc(b1-6)]Man(a1-6)[Neu5Ac(a2-6)Gal(b1-4)GlcNAc(b1-2)Man(a1-3)][GlcNAc(b1-4)]Man(b1-4)GlcNAc(b1-4)GlcNAc
# Procedure, shortened: as §1
# [28] = molecular target: Neu5Ac(a2-6)Gal(b1-4)GlcNAc(b1-3)Gal(b1-3)GlcNAc
# Procedure, shortened: as §1
# [29] = molecular target: Neu5Ac(a2-6)Gal(b1-4)GlcNAc(b1-3)Gal(b1-4)GlcNAc
# Procedure, shortened: as §1
# [30] = molecular target: Neu5Ac(a2-6)Gal(b1-4)GlcNAc(b1-3)Gal(b1-4)GlcNAc(b1-2)Man(a1-3)[Neu5Ac(a2-6)Gal(b1-4)GlcNAc(b1-3)Gal(b1-4)GlcNAc(b1-2)Man(a1-6)]GalNAc
# Procedure, shortened: as §1
# [31] = molecular target: Neu5Ac(a2-6)Gal(b1-4)GlcNAc(b1-3)Gal(b1-4)GlcNAc(b1-3)Gal(b1-4)GlcNAc
# Procedure, shortened: as §1
# [32] = molecular target: Neu5Ac(a2-6)Gal(b1-4)GlcNAc(b1-3)Gal(b1-4)GlcNAc(b1-3)Gal(b1-4)GlcNAc(b1-2)Man(a1-3)[Neu5Ac(a2-6)Gal(b1-4)GlcNAc(b1-3)Gal(b1-4)GlcNAc(b1-3)Gal(b1-4)GlcNAc(b1-2)Man(a1-6)]GalNAc
# Procedure, shortened: as §1
# [33] = molecular target: Neu5Ac(a2-6)Gal(b1-4)GlcNAc(b1-3)Gal(b1-4)GlcNAc(b1-3)GalNAc
# Procedure, shortened: as §1
# [34] = molecular target: Neu5Ac(a2-6)Gal(b1-4)GlcNAc(b1-3)Gal(b1-4)GlcNAc(b1-3)[Neu5Ac(a2-6)Gal(b1-4)GlcNAc(b1-3)Gal(b1-4)GlcNAc(b1-6)]GalNAc
# Procedure, shortened: as §1
# [35] = molecular target: Neu5Ac(a2-6)Gal(b1-4)GlcNAc(b1-3)Gal(b1-4)GlcNAc(b1-6)[Gal(b1-3)]GalNAc
# Procedure, shortened: as §1
# [36] = molecular target: Neu5Ac(a2-6)Gal(b1-4)GlcNAc(b1-3)Gal(b1-4)[Fuc(a1-3)]GlcNAc(b1-3)Gal(b1-4)[Fuc(a1-3)]GlcNAc
# Procedure, shortened: as §1
# [37] = molecular target: Neu5Ac(a2-6)Gal(b1-4)GlcNAc(b1-3)GalNAc
# Procedure, shortened: as §1
# [38] = molecular target: Neu5Ac(a2-6)Gal(b1-4)GlcNAc(b1-3)[Neu5Ac(a2-6)Gal(b1-4)GlcNAc(b1-6)]GalNAc
# Procedure, shortened: as §1
# [39] = molecular target: Neu5Ac(a2-6)Gal(b1-4)GlcNAc(b1-6)GalNAc
# Procedure, shortened: as §1
# [40] = molecular target: Neu5Ac(a2-6)Gal(b1-4)GlcNAc(b1-6)[Gal(b1-3)GlcNAc(b1-3)]Gal(b1-4)Glc
# Procedure, shortened: as §1
# [41] = molecular target: Neu5Ac(a2-6)Gal(b1-4)GlcNAc(b1-6)[Gal(b1-3)]GalNAc
# Procedure, shortened: as §1
# [42] = molecular target: Neu5Ac(a2-6)Gal(b1-4)GlcNAc6S
# Procedure, shortened: as §1
# [43] = molecular target: Neu5Ac(a2-6)GalNAc
# Procedure, shortened: as §1
# [44] = molecular target: Neu5Ac(a2-6)GalNAc(b1-4)GlcNAc
# Procedure, shortened: as §1
# [45] = molecular target: Neu5Ac(a2-6)GalNAc(b1-4)GlcNAc6S
# Procedure, shortened: as §1
binder,measurement,setting,value
B1,glycan array binding signal (z-score),[1],-0.941
same,glycan array binding signal (z-score),[2],-0.948
same,glycan array binding signal (z-score),[3],-0.392
same,glycan array binding signal (z-score),[4],-0.332
same,glycan array binding signal (z-score),[5],-0.607
same,glycan array binding signal (z-score),[6],-1.17
same,glycan array binding signal (z-score),[7],-0.673
same,glycan array binding signal (z-score),[8],-0.293
same,glycan array binding signal (z-score),[9],0.768
same,glycan array binding signal (z-score),[10],-1.05
same,glycan array binding signal (z-score),[11],-0.753
same,glycan array binding signal (z-score),[12],-1.05
same,glycan array binding signal (z-score),[13],0.674
same,glycan array binding signal (z-score),[14],-0.67
same,glycan array binding signal (z-score),[15],0.275
same,glycan array binding signal (z-score),[16],-0.893
same,glycan array binding signal (z-score),[17],-0.807
same,glycan array binding signal (z-score),[18],-1.6
same,glycan array binding signal (z-score),[19],0.449
same,glycan array binding signal (z-score),[20],1.78
same,glycan array binding signal (z-score),[21],-0.495
same,glycan array binding signal (z-score),[22],-0.439
same,glycan array binding signal (z-score),[23],-0.514
same,glycan array binding signal (z-score),[24],1.05
same,glycan array binding signal (z-score),[25],1.11
same,glycan array binding signal (z-score),[26],-0.99
same,glycan array binding signal (z-score),[27],-1.08
same,glycan array binding signal (z-score),[28],-0.586
same,glycan array binding signal (z-score),[29],-1.39
same,glycan array binding signal (z-score),[30],0.882
same,glycan array binding signal (z-score),[31],-0.378
same,glycan array binding signal (z-score),[32],1.3
same,glycan array binding signal (z-score),[33],-0.436
same,glycan array binding signal (z-score),[34],0.501
same,glycan array binding signal (z-score),[35],-0.293
same,glycan array binding signal (z-score),[36],-0.99
same,glycan array binding signal (z-score),[37],-0.745
same,glycan array binding signal (z-score),[38],-1.59
same,glycan array binding signal (z-score),[39],-1.14
same,glycan array binding signal (z-score),[40],1.74
same,glycan array binding signal (z-score),[41],-0.081
same,glycan array binding signal (z-score),[42],-0.552
same,glycan array binding signal (z-score),[43],-1
same,glycan array binding signal (z-score),[44],5.26
same,glycan array binding signal (z-score),[45],0.453

# Part of the list above, reformatted.
binder | measurement | setting | value
B1 | glycan array binding signal (z-score) | [9] | 0.768
same | glycan array binding signal (z-score) | [43] | -1
